No constants are given. Whether binding was seen depends on the method and setting. Binding seen in cells or lysates may run through a third protein. Some entries that bind do so weakly or less than the wild type.
Molecular target: β-site amyloid precursor protein cleaving enzyme 1 (BACE1), HA-tagged, wild type (UniProt P56817)
Experiment: co-IP; HEK 293 cells overexpressing IR (IRA or IRB) and HA-tagged BACE1 or inactive BACE1 (BACE1i), treated or not with the BACE1 inhibitor C3; BACE1 immunoprecipitated with anti-HA antibody; IR and BACE1 detected by immunoblot

Amino acid sequences for entries named in this document (tags omitted). A change or cut given only in a name is not applied to a line headed by its entry. Chains listed by the source or under a name are the forms on record and can include a tag or linker. Residues count along the entry.
UniProt P56817, residues 22-501: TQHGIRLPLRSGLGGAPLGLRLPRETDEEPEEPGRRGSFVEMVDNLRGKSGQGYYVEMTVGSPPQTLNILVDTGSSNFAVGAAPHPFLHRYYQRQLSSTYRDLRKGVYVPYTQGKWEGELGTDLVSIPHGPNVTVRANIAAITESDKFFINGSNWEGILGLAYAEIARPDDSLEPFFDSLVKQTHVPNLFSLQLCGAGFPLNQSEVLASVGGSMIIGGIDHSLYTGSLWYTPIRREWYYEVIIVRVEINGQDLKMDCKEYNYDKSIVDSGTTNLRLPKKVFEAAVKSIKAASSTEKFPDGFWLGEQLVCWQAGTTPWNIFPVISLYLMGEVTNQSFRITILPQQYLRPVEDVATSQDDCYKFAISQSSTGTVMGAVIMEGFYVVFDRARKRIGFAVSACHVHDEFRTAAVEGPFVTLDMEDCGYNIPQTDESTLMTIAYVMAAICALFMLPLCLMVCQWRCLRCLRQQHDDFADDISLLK
insulin receptor precursor (proIR), isoform A (P06213-2, form named): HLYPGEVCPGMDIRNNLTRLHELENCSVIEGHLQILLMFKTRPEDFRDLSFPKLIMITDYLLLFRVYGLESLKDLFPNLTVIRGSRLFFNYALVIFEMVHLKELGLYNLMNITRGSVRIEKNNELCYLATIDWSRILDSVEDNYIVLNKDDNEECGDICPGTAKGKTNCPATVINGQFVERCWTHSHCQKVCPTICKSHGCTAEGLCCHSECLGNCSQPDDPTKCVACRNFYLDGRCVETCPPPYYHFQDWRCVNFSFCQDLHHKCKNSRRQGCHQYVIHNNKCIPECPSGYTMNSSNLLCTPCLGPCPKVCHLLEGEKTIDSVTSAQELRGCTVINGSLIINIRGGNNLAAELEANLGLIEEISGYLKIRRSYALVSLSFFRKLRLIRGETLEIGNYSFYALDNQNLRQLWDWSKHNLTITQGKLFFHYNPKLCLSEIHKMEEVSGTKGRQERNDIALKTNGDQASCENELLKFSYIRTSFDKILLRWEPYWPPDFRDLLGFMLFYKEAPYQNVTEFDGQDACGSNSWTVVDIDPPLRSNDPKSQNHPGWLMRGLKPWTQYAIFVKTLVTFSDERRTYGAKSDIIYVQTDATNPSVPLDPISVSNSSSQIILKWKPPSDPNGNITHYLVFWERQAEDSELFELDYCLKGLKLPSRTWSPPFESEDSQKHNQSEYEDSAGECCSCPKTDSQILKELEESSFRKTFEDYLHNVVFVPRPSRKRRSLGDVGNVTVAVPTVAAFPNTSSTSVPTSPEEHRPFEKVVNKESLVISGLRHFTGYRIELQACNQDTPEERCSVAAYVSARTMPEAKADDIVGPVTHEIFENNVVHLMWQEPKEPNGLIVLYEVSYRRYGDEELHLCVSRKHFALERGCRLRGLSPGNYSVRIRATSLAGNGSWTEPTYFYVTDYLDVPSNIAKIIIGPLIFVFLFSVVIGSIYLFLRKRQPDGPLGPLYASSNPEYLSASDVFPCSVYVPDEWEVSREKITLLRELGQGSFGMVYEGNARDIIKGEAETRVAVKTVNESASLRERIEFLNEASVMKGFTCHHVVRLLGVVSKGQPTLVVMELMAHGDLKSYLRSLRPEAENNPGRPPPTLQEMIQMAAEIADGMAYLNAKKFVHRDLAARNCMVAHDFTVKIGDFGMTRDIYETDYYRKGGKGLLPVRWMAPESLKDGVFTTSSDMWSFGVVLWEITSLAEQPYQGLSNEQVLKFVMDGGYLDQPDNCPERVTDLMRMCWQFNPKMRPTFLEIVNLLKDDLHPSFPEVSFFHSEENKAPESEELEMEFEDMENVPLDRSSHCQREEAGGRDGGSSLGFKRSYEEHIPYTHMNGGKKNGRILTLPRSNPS

binding: binds
Substance: insulin receptor precursor (proIR), isoform A (from UniProt P06213-2 28-1370)
